PubChem BioAssay AID652243 – Drosophila RNAi Screening Center, 2013
Screen: 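Fly regulators of androgen-dependent reporter output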 (primary screen). Cell system: Drosophila S2R+ cells. Reagent: long dsRNA against Drosophila genes. Timing: 72 h (48 h, then 24 h hormone). Treatment: synthetic androgen R1881 at 10 nM for 24 h. Measured: 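Per-well raw luminescence of the androgen-driven firefly reporter and of the Renilla control, two replicates each, without normalisation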. Scale: firefly reporter light: higher = more light from androgen-responsive reporter; Renilla control light: higher = more constitutive control signal (cell number, transfection). Active means: 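Hit when the log firefly-to-Renilla ratio dropped or increased by a fixed fold versus the mean of GFP or LacZ controls across duplicate plates; lowering cut given as 1.5 and as 3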. Meaning of the calls: active = hit: reporter lowered or raised; inactive = no hit.
The screen tested about 24,000 reagents; below is a random part of those with a known target gene and a result. Over the whole deposit, 246 (1%) are marked active. 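Plates not normalised; calls are printed but the firefly/Renilla ratio behind them is not deposited; fold cut for lowering reported inconsistently.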 Raw values vary from plate to plate and are shown uncorrected. A plus sign joins genes that one reagent is predicted to hit. The record does not give: the amount of reagent.

no.	target gene	dsRNA	firefly reporter light, replicate 1	firefly reporter light, replicate 2	Renilla control light, replicate 1	Renilla control light, replicate 2	activity call
1	Parp1	DRSC07725	2.04e5	1.52e5	2.64e5	3.50e5	inactive
2	Parp1	DRSC07778	94178	64801	8.01e5	1.04e6	inactive
3	Parp1	DRSC07780	78721	78419	1.11e6	9.22e5	inactive
4	blw	DRSC04675	3.36e5	3.57e5	2.05e6	1.94e6	inactive
5	HemK1	DRSC03253	8.97e5	9.90e5	1.51e6	1.68e6	inactive
6	CG10165	DRSC02017	1.16e6	1.10e6	1.79e6	1.75e6	inactive
7	CG8006	DRSC10949	1.00e6	1.00e6	8.61e5	1.57e6	inactive
8	CG31122	DRSC16286	61159	1.42e5	1.39e6	1.54e6	inactive
9	CG31122	DRSC23448	9.21e5	7.22e5	6.58e5	5.69e5	inactive
10	Strn-Mlck	DRSC05032	1.70e6	1.28e6	3.33e6	2.21e6	inactive
11	Strn-Mlck	DRSC05598					inactive
12	Strn-Mlck	DRSC06571	98937	1.35e5	2.03e6	2.03e6	inactive
13	Strn-Mlck	DRSC07471	33568	51215	6.42e5	6.42e5	inactive
14	Strn-Mlck	DRSC37023					inactive
15	CG5334	DRSC19941	6.56e5	4.71e5	3.91e6	3.77e6	inactive
16	CG8746	DRSC07257	1.82e5	2.33e5	1.61e6	1.55e6	inactive
17	CG3868	DRSC10380	1.03e6	1.02e6	1.44e6	1.57e6	inactive
18	Slmap	DRSC03799	1.15e5	1.11e5	1.09e6	1.03e6	inactive
19	CG31709	DRSC01081	1.99e5	2.21e5	4.79e5	4.25e5	inactive
20	CG31709	DRSC27731	2.37e5	3.60e5	5.11e5	7.58e5	inactive

6 neighbouring records already listed, quoted:
no.	target gene	dsRNA	firefly reporter light, replicate 1	firefly reporter light, replicate 2	Renilla control light, replicate 1	Renilla control light, replicate 2	activity call
7	CG8006	DRSC10949	1.00e6	1.00e6	8.61e5	1.57e6	inactive
8	CG31122	DRSC16286	61159	1.42e5	1.39e6	1.54e6	inactive
9	CG31122	DRSC23448	9.21e5	7.22e5	6.58e5	5.69e5	inactive
10	Strn-Mlck	DRSC05032	1.70e6	1.28e6	3.33e6	2.21e6	inactive
11	Strn-Mlck	DRSC05598					inactive
12	Strn-Mlck	DRSC06571	98937	1.35e5	2.03e6	2.03e6	inactive

Continued:
no.	target gene	dsRNA	firefly reporter light, replicate 1	firefly reporter light, replicate 2	Renilla control light, replicate 1	Renilla control light, replicate 2	activity call
21	wun2	DRSC07566	3.10e5	2.08e5	1.94e6	1.16e6	inactive
22	wun2	DRSC36974					inactive
23	wun2	DRSC36975					inactive
24	CG13060	DRSC09943	2.40e5	3.09e5	2.97e6	3.05e6	inactive
25	CG13060	DRSC28110	9.53e5	1.04e6	1.68e6	1.69e6	inactive
26	CG7567	DRSC16258	2.05e5	2.29e5	1.68e6	2.17e6	inactive
27	GATAd	DRSC02803	7.81e5	1.06e6	1.18e6	1.76e6	inactive
28	CG14545	DRSC14889	1.52e5	2.24e5	2.78e6	2.61e6	inactive
29	CG14545	DRSC27728	2.77e5	1.80e5	4.40e5	7.41e5	inactive
30	Kaz	DRSC14637	2.53e5	2.44e5	3.10e6	3.05e6	inactive
31	nullo	DRSC18807	3.01e5	4.21e5	3.15e6	3.16e6	inactive
32	nullo	DRSC29660	6.11e5	5.62e5	1.09e6	1.09e6	inactive
33	eIF2Bgamma	DRSC07100	8.85e5	8.35e5	1.15e6	1.36e6	inactive
34	eIF2Bgamma	DRSC29765	4.79e5	4.23e5	1.38e6	1.51e6	inactive
35	CG41320 (retired record) + l(3)80Fg	DRSC38582	7.19e5	3.78e5	1.27e6	8.08e5	inactive
36	CG13511	DRSC04153	2.59e5	2.41e5	1.81e6	1.62e6	inactive
37	CG13511	DRSC29026	5.24e5	5.14e5	1.45e6	1.39e6	inactive
38	CG3719	DRSC18493	6.57e5	5.57e5	3.38e6	3.81e6	inactive
39	emp	DRSC04019	1.10e5	1.29e5	1.40e5	1.65e5	inactive
40	emp	DRSC04683	1.16e6	1.07e6	2.10e6	2.36e6	inactive
